Reference: the supplement of paper PMC10398353
Where “and” joins values, the source holds several entries; their conditions need not be identical. Equal values may be shown once. Where a name gives a salt, the structure may show the parent alone. ± gives the standard deviation of the averaged measurements. Some of the results follow. This is a noisy data set.

Tested on: Salmonella enterica serovar Typhimurium ST313 D23580
Assay: normalized bacterial growth (OD600 20 h minus 0 h, interquartile-mean normalized) (fraction of plate interquartile mean); higher = more bacterial growth (less inhibition)
Conditions: LPM (pH 5.8, low phosphate, low Mg2+), concentration: 10 µM, temperature: 37 °C

Row | SMILES | normalized bacterial growth
1 | CSCC[C@H](NC=O)C(=O)N[C@@H](Cc1ccccc1)C(=O)O | 1.27
2 | CC(=O)O[C@@H]1C[C@H]2C(C)(C)C(=O)C=C[C@]2(C)[C@H]2CC[C@@]3(C)[C@H](c4ccoc4)OC(=O)[C@H]4O[C@]43[C@@]21C | 0.867
3 | CCCOc1ccc2[nH]c(NC(=O)OC)nc2c1 | 0.935
4 | Cc1cc2nc3c(=O)[nH]c(=O)nc-3n(C[C@H](O)[C@H](O)[C@H](O)CO)c2cc1C [Riboflavine] | 1.16
5 | Cc1cc2nc3c(=O)[nH]c(=O)nc-3n(C[C@H](O)[C@H](O)[C@H](O)CO)c2cc1C | 1.28
6 | C[C@H]1[C@H](C)CC[C@]2(C(=O)O)CC[C@]3(C)C(=CC[C@@H]4[C@@]5(C)CC[C@H](O)C(C)(C)[C@@H]5CC[C@]43C)[C@H]12 | 1.05 ± 0.078
7 | O=C(c1ccc(F)cc1)C1CCN(CCn2c(=O)[nH]c3ccccc3c2=O)CC1 [Ketanserin tartrate hydrate] | 0.946
8 | O=C(c1ccc(F)cc1)C1CCN(CCn2c(=O)[nH]c3ccccc3c2=O)CC1 [Ketanserin tartrate] | 1.17
9 | CCN(CC)C(=O)c1ccc(O)c(OC)c1 [Vanillic acid diethylamide] | 0.997
10 | NC1(C(=O)O)CC1 | 0.83
11 | NC1(C(=O)O)CC1 [1-Aminocyclopropanecarboxylic acid hydrochloride] | 1.14
12 | Oc1cc2c(cc1O)C1c3ccc(O)c(O)c3OCC1(O)C2 (stereo unspecified) | 1.02
13 | CC(=O)[C@@]1(O)CC[C@H]2[C@@H]3CCC4=CC(=O)CC[C@]4(C)[C@H]3CC[C@@]21C | 0.995
14 | O=C(O)/C=C/C(O)c1ccc(Cl)cc1 (stereo unspecified) | 0.844
15 | CC(C)CC(NC(=O)OCC1c2ccccc2-c2ccccc21)C(=O)O (stereo in doubt) | 1.14
16 | COC(=O)C1=C(C)NC(C)=C(C(=O)OC(C)(C)CN(C)CCC(c2ccccc2)c2ccccc2)C1c1cccc([N+](=O)[O-])c1 (stereo unspecified) [Lercanidipine hydrochloride hemihydrate] | 0.835
17 | C[C@]12CCC(=O)C=C1CC[C@@H]1[C@@H]2CC[C@@]2(C)[C@H]1CC[C@]2(O)C(=O)CO [Cortexolone] | 1.12
18 | COc1ccc2cc1Oc1ccc(cc1)C[C@H]1c3cc(c(OC)cc3CCN1C)Oc1c(OC)c(OC)c(OC)c3c1[C@H](C2)N(C)CC3 | 0.788
19 | CN(C)CCC(c1ccc(Br)cc1)c1ccccn1 (stereo unspecified) [()-Brompheniramine maleate] | 1.06
20 | COc1ccc(Cl)cc1NC(=O)Nc1cc(C)nc2ccccc12 | 1.47
21 | COc1ccccc1N1CCN(CCCNc2c(C)c(=O)n(C)c(=O)n2C)CC1 ["Urapidil, 5-Methyl-"] | 1.01
22 | Oc1c(Cl)cc(Cl)c2cccnc12 | 0.0117

Row | SMILES | normalized bacterial growth
23 | c1ccc(-c2ccc(C(c3ccccc3)n3ccnc3)cc2)cc1 (stereo unspecified) | 0.454
24 | CC(=O)OC[C@H]1O[C@@H]([S-])[C@H](OC(C)=O)[C@@H](OC(C)=O)[C@@H]1OC(C)=O.CCP(CC)CC.[Au+] | 0.475
25 | N#Cc1ccc2c(c1)N(CCCN1CCC(O)CC1)c1ccccc1S2 | 0.845
26 | CC1CCN(CC[C@H]2CCCN2S(=O)(=O)c2cccc(O)c2)CC1 | 0.81
27 | Nc1ncnc2c1ncn2[C@@H]1O[C@H](CO)[C@@H](O)[C@@H]1O | 0.891
28 | Nc1ncnc2c1ncn2[C@@H]1O[C@H](CO)[C@@H](O)[C@@H]1O [Vidarabine] | 0.98
29 | NC[C@@H]1O[C@H](C23CC4CC(CC(C4)C2)C3)Cc2c1ccc(O)c2O | 0.791
30 | O=c1[nH]cnc2nc[nH]c12 | 0.989
31 | C[C@@](Cc1ccc(O)c(O)c1)(NN)C(=O)O | 1.02
32 | Oc1cc2c(cc1O)C(c1ccccc1)CNCC2 (stereo unspecified) | 1.13 and 1.07
33 | COc1ccc2cc1Oc1ccc(cc1)C[C@@H]1c3cc(c(OC)cc3CCN1C)Oc1c(OC)c(OC)cc3c1[C@H](C2)N(C)CC3 | 1
34 | CN1CCN(CC(=O)N2c3ccccc3C(=O)Nc3cccnc32)CC1 [Pirenzepine dihydrochloride] | 1.22
35 | CN(CCCCCCCCCCN(C)C(=O)Oc1cccc([N+](C)(C)C)c1)C(=O)Oc1cccc([N+](C)(C)C)c1 [Demecarium bromide] | 0.885
36 | CC(=O)N(CC(O)CO)c1c(I)c(C(=O)NCC(O)CO)c(I)c(C(=O)NCC(O)CO)c1I (stereo unspecified) [Iohexol] | 1.24
37 | COC(=O)Nc1nc2cc(Sc3ccccc3)ccc2[nH]1 [Fenbendazole] | 1.02
38 | COC(=O)Nc1nc2cc(Sc3ccccc3)ccc2[nH]1 | 0.86
39 | CNCCc1cnc(CCC(c2ccccc2)c2ccccc2)[nH]1 [N-Methylhistaprodifen dioxalate salt] | 0.822
40 | NC(Cn1ccc(=O)c(O)c1)C(=O)O (stereo unspecified) | 1.2
41 | CC(C)NCC(O)COc1ccc(CC(N)=O)cc1 (stereo unspecified) [()-Atenolol] | 0.607
42 | COc1cc2ccc(=O)oc2c(O)c1O | 0.79
43 | CC(CNC1CCCCC1)OC(=O)c1ccccc1 (stereo unspecified) [Hexylcaine hydrochloride] | 1.06
44 | Nc1ccc(S(=O)(=O)Nc2nccs2)cc1 | 0.993

Row | SMILES | normalized bacterial growth
45 | COC(=O)C(O)c1ccccc1 (stereo unspecified) | 1.01
46 | Cc1ccc(-c2cc(C(F)(F)F)nn2-c2ccc(S(N)(=O)=O)cc2)cc1 | 0.775
47 | O=C1c2ccccc2C(=O)c2c(O)c(O)cc(O)c21 | 0.707
48 | CC(C)[N+]1(C)[C@@H]2CC[C@H]1C[C@@H](OC(=O)C(CO)c1ccccc1)C2 (stereo partly specified) | 1.2
49 | CC(C)[N+]1(C)[C@@H]2CC[C@H]1C[C@@H](OC(=O)C(CO)c1ccccc1)C2 (stereo partly specified) [Ipratropium bromide] | 1.13 ± 0.21
50 | CC[C@H]1OC(=O)[C@H](C)[C@@H](O[C@H]2C[C@@](C)(OC)[C@@H](O)[C@H](C)O2)[C@H](C)[C@@H](O[C@@H]2O[C@H](C)C[C@H](N(C)C)[C@H]2O)[C@](C)(O)C[C@@H](C)CN(C)[C@H](C)[C@@H](O)[C@]1(C)O | 0.871
51 | C[C@@H]1CCC[C@H](C)N1NC(=O)c1ccc(Cl)c(S(N)(=O)=O)c1 | 1.14
52 | C[C@@H]1CCC[C@H](C)N1NC(=O)c1ccc(Cl)c(S(N)(=O)=O)c1 [Clopamide] | 1.1
53 | CCOC(=O)C(Cc1ccc(O)cc1)NC(C)=O (stereo unspecified) | 1.01
54 | CN[C@H]1CC[C@@H](c2ccc(Cl)c(Cl)c2)c2ccccc21 [Sertraline hydrochloride] | 0.921
55 | COc1ccc2c(c1)c(CC(=O)O)c(C)n2Cc1ccc(F)cc1 [1-(4-Fluorobenzyl)-5-methoxy-2-methylindole-3-acetic acid] | 0.93
56 | O[C@H]1[C@H](O)[C@@H](O)C2OC[C@H]1O2 | 1.19
57 | CC(=O)Nc1c(I)c(C(=O)N[C@H]2C(O)O[C@H](CO)[C@@H](O)[C@@H]2O)c(I)c(N(C)C(C)=O)c1I (stereo partly specified) [Metrizamide] | 0.532
58 | NC[C@H](O)c1ccc(O)c(O)c1 | 1.17
59 | CCN(CC)CCNC(=O)c1ccc(N)cc1 [Procainamide hydrochloride] | 1.2
60 | Cc1ccccc1N1CCN(S(=O)(=O)C[C@]23CC[C@H](C[C@@H]2NC(=O)[C@@H](N)CCS(C)(=O)=O)C3(C)C)CC1 ["L-368,899 hydrochloride"] | 0.999
61 | O=C(Oc1cc(O)cc2c1C[C@@H](OC(=O)c1cc(O)c(O)c(O)c1)[C@@H](c1cc(O)c(O)c(O)c1)O2)c1cc(O)c(O)c(O)c1 | 1.04
62 | c1ccc2c(c1)CC(N1CCN(c3cccc4c3OCCO4)CC1)C2 | 1.15
63 | CC(=O)c1cc2ccccc2oc1=O [3-Acetylcoumarin] | 1.35
64 | CCCCCCOc1ccccc1C(N)=O | 0.838
65 | O=C(O)C1=C(CSc2nnnn2CS(=O)(=O)O)CS[C@@H]2[C@H](NC(=O)[C@H](O)c3ccccc3)C(=O)N12 | 1.05
66 | OC[C@H]1O[C@@H](n2cnc3c(N[C@H]4CC5CCC4C5)ncnc32)[C@H](O)[C@@H]1O (stereo partly specified) | 0.897

Row | SMILES | normalized bacterial growth
67 | c1cc(CN2CCCCC2)cc(OCCCNc2nc3ccccc3s2)c1 | 0.701
68 | CC(C)CC(NC(=O)[C@H](C)N)C(=O)O (mixture of isomers) | 0.943
69 | CC(=O)O[C@]1(C)CC[C@@]23C[C@H]1C(C)(C)[C@@H]2CC[C@H]3C | 1.07
70 | CC(=O)Nc1c(I)cc(I)c(C(=O)O)c1I | 1.17
71 | CC(=O)Nc1nnc(S(N)(=O)=O)s1 [Acetazolamide] | 1.21
72 | COC1=CC(=O)C(O)=C/C1=C\C=C\c1ccccc1 | 0.652
73 | O=C(O)CCC(C(=O)O)N1C(=O)c2ccccc2C1=O ["L-Glutamic acid, N-phthaloyl-"] | 0.84
74 | COc1cc(O)c2c(=O)cc(C)oc2c1CC=C(C)C | 0.778
75 | OC[C@@H](O)[C@@H](O[C@@H]1O[C@H](CO)[C@@H](O)[C@H](O)[C@H]1O)[C@H](O)[C@@H](O)CO | 1.05
76 | C[N+](C)(C)CC(O)CC(=O)[O-] (stereo unspecified) | 0.887 and 1.07
77 | NC(N)=N[C@@H](CCC(=O)O)C(=O)O [alpha-Guanidinoglutaric acid] | 1.14
78 | CCCCOc1cc(C(=O)OCCN(CC)CC)ccc1N [Benoxinate hydrochloride] | 1.01
79 | CCCCC[C@H](O)/C=C/[C@H]1C(=O)C=C[C@@H]1C/C=C\CCCC(=O)O | 0.897
80 | C=C1O[C@@](CO)(n2cnc3c(N)ncnc32)[C@H](O)[C@@H]1O | 1.21
81 | CC(=O)C1CCC2C3CC=C4CC(OS(=O)(=O)O)CCC4(C)C3CCC12C (stereo unspecified) | 1.11
82 | O=C1/C(=C/c2ccc(O)c(O)c2)Oc2c1ccc(O[C@@H]1O[C@H](CO)[C@@H](O)[C@H](O)[C@H]1O)c2O | 0.693
83 | O=C(/C=C/c1ccc(O)c(O)c1)O[C@H](Cc1ccc(O)c(O)c1)C(=O)O | 1.1 ± 0.16
84 | C1CCC(N=C(NC23CC4CC(CC(C4)C2)C3)N2CCOCC2)CC1 | 0.838
85 | NC1CCN(O)C1=O (stereo unspecified) | 1.12
86 | C[C@H]1CC[C@@]2(OC1)O[C@H]1C[C@H]3[C@@H]4CC[C@@H]5C[C@@H](O)CC[C@]5(C)[C@H]4CC[C@]3(C)[C@H]1[C@@H]2C | 1.2

Reformatted field by field: part of the list above
Oc1cc2c(cc1O)C1c3ccc(O)c(O)c3OCC1(O)C2 (stereo unspecified)
  normalized bacterial growth: 1.02
CC(=O)[C@@]1(O)CC[C@H]2[C@@H]3CCC4=CC(=O)CC[C@]4(C)[C@H]3CC[C@@]21C
  normalized bacterial growth: 0.995
COC(=O)Nc1nc2cc(Sc3ccccc3)ccc2[nH]1 [Fenbendazole]
  normalized bacterial growth: 1.02
CC(=O)Nc1nnc(S(N)(=O)=O)s1 [Acetazolamide]
  normalized bacterial growth: 1.21
